The results in this text go back to patent US12180193B2, “Accelerating fibrosarcoma protein degrading compounds and associated methods of use” (Arvinas Operations, Inc., priority 2020, dated 2024).

Amino acid sequences for entries named in this document (tags omitted).
UniProt P15056, whole entry G466V: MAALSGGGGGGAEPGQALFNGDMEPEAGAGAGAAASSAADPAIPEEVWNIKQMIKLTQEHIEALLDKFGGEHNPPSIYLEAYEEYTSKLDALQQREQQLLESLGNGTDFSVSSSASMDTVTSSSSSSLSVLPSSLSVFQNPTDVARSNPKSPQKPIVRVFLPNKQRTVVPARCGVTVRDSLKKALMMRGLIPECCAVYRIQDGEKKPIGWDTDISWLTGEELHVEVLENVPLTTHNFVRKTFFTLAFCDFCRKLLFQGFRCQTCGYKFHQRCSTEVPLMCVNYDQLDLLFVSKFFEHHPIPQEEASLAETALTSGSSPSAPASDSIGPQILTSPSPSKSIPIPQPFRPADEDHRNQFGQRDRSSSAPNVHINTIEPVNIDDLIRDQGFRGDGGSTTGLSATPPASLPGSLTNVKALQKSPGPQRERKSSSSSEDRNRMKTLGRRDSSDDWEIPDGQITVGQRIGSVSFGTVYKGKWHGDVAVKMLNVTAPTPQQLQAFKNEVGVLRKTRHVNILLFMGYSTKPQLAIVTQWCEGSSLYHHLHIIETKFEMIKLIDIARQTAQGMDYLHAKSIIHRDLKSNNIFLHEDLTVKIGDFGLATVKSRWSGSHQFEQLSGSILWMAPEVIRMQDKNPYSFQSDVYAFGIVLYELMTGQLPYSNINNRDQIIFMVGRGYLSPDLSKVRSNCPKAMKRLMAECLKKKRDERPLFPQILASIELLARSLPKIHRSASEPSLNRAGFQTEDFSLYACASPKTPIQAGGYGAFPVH
UniProt P15056, whole entry V600E: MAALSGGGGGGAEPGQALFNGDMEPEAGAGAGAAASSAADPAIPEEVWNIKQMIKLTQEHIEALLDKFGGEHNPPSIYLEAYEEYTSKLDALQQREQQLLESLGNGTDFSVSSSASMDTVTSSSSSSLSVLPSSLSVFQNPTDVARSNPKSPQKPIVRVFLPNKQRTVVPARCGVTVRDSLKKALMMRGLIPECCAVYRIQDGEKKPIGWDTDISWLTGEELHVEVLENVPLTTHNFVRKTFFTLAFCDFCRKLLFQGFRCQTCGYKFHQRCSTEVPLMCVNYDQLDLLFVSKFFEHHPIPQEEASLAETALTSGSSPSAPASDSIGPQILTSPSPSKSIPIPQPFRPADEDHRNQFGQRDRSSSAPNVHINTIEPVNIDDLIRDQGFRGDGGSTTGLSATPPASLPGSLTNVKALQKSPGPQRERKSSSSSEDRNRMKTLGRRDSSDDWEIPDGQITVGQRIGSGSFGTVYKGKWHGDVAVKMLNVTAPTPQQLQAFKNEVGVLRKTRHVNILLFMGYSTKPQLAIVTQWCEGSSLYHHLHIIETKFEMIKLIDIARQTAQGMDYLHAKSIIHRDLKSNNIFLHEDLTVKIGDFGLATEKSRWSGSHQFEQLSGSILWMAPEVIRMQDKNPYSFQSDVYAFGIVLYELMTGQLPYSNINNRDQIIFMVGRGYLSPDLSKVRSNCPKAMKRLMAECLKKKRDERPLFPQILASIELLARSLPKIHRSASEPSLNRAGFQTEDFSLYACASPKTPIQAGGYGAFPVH

In assay [1] the target is BRAF V600E (Homo sapiens, UniProt P15056, V600E). As to the kind of experiment: Cellular assay of target protein degradation, T-Rex 293 cells stably transfected with HA-BRAF_V600E (HA immunofluorescence, high content imaging). To be noted: T-Rex 293 HA-BRAF V600E. As to the method:
(§1) Protocol for a cellular assay of target protein degradation (T-Rex 293 cells). T-Rex 293 cells were purchased from Invitrogen (#R71007), and stably transfected with a pcDNA4/TO_HA-BRAF_V600E construct, using 400 ug Zeocin for selection. V600e cells are plated in Dulbecco's Modified Eagle Medium (DMEM; Gibco #11965118) containing 10% fetal bovine serum (FBS; Gibco #16000044) and 1 ng/mL doxycycline (Selleckchem #4163) at a density of 5,000 cells/well in 50 μl on poly-D-lysine (PDL) coated, black clear bottom 96-well plates (Corning #354640) and incubated for 24 hours at 37° C. with 5% C02. The following day 50 ul of tested compound was added at 2x concentration in DMEM with a final concentration ranging from 1 μM to 0.1 nM in 0.1% dimethylsulfoxide (DMSO), and incubated for 24 hours at 37° C. with 5% CO2. At the end of the experimental treatment, the media was flicked off and cells washed once with phosphate-buffered saline (PBS)++ (PBS with CaCl and MgCl) and gently replacing with 200 μl PBS++ per well. […] Plate was wash three times with 200 uL PBS++, and imaged on a high content reader (ImageXpress Micro XLS, Molecular Devices).
(§2) The concentration of exemplary compound that leads to half maximal degradation (DC50) as well as the maximum degradation observed (Dmax, conventionally expressed as a percentage of control), which are below in Table 2 for the exemplary compounds of Table 1.

In assay [2] the target is BRAF G466V (Homo sapiens, UniProt P15056, G466V). As to the kind of experiment: Cellular assay of target protein degradation, T-Rex 293 cells stably transfected with HA-BRAF G466V (HA immunofluorescence, high content imaging). The settings on record: T-Rex 293 HA-BRAF G466V. On the procedure:
as §1, with “a pcDNA4/TO_HA-BRAF G466V” for “a pcDNA4/TO_HA-BRAF_V600E”, “selection. G466V” for “selection. V600e”, “and 0.75” for “and 1”, “5% CO2.” for “5% C02.”, “from 30 nM” for “from 1 μM”, “to 3 pM” for “to 0.1 nM”
as §2

The DC50 is the midpoint of the concentration-degradation curve.

Structures were worked out from names or drawings and are uncertain.

`O=C1CCC(N2Cc3cc(N4CCC(CN5CC(Cc6ccc(-c7cnc8[nH]cc(C(=O)c9c(F)ccc(NS(=O)(=O)N%10CC[C@@H](F)C%10)c9F)c8c7)cc6)C5)CC4)ccc3C2=O)C(=O)N1` (stereo partly shown): in assay [1] (maximum degradation observed), the “BRaf V600E DMax” value was “B (35 < B < 70)”. The 50% degradation concentration (DC50) was in the range of 50 to 500 nM in assay [1] (read-out: BRaf V600E DC50, half maximal degradation) and 1 to 10 nM in assay [2] (read-out: BRaf G466V DC50, half maximal degradation). Further, in assay [2] (maximum degradation observed), the “BRaf G466V DMax” value was “A (A ≥ 70)”.
